Measured values: patent publication US9204651B2, “N-substituted hetero-bicyclic compounds and derivatives for combating animal pests” (BASF SE, priority 2011, dated 2015)
Some of these results come from one statement about several compounds together.

Tests used:
Format in all cases: in vivo
[1] = system: Silverleaf Whitefly (Bemisia Argentifolii); experiment: Silverleaf whitefly spray test on cotton plants; conditions: 500 ppm; sprayed cotton plants; adults; 3 days after treatment
[2] = system: Orchid Thrips (Dichromothrips corbetti); experiment: Orchid thrips floral-immersion test; conditions: 500 ppm; orchid flowers dipped; adult thrips; after 4 days
[3] = system: Cowpea Aphid (Aphis craccivora); experiment: Cowpea aphid spray test on potted cowpea plants; conditions: 500 ppm; sprayed cowpea plants; assessed after 24, 72, and 120 hours
[4] = system: Green Peach Aphid (Myzus persicae); experiment: Green peach aphid spray test on bell pepper plants; conditions: 300 ppm; sprayed bell pepper plants; after 5 days
[5] = system: Cotton Aphid (Aphis gossypii); experiment: Cotton aphid cotyledon dip test; conditions: 300 ppm; cotton cotyledons dipped; after 5 days
[6] = system: Vetch Aphid (Megoura viciae); experiment: Vetch aphid broad bean leaf disk microtiter test; conditions: 800 ppm; broad bean leaf disks; 5 days
[7] = system: Boll Weevil (Anthonomus grandis); experiment: Boll weevil insect diet microtiter test; conditions: 2500 ppm, egg and larval mortality, 5 days
[8] = system: Rice Brown Plant Hopper (Nilaparvata lugens); experiment: Rice brown plant hopper spray test on rice seedlings; conditions: 500 ppm; sprayed rice seedlings; adults; after 72 hours
[9] = system: Rice Green Leafhopper (Nephotettix virescens); experiment: Rice green leafhopper spray test on rice seedlings; conditions: 500 ppm; sprayed rice seedlings; adults; after 72 hours

Row | Compound | mortality in comparison with untreated controls [1] | mortality in comparison with untreated controls [2] | mortality in comparison with untreated controls [3] | mortality in comparison with untreated controls [4] | mortality in comparison with untreated controls [5] | mortality in comparison with untreated controls [6] | mortality in comparison with untreated controls [7] | mortality in comparison with untreated controls [8] | mortality in comparison with untreated controls [9]
1 | O=c1nc2n(o1)CCN2Cc1cnc(Cl)s1 [Compound E2.12] | at least 75% | at least 75% | at least 75% | at least 75% | – | – | – | – | –
2 | O=c1nc2n(o1)CCCN2Cc1cnc(Cl)c(Cl)c1 [Compound E2.16] | – | – | at least 75% | at least 75% | at least 75% | at least 75% | over 75% | – | –
3 | Cc1cc2oc(=S)nc-2n(Cc2cnc(Cl)s2)c1 [Compound E1.38] | – | at least 75% | at least 75% | – | – | at least 75% | – | – | –
4 | Cc1cc2sc(=S)nc-2n(Cc2ccc(Cl)nc2)c1 [Compound E1.36] | – | at least 75% | – | at least 75% | – | at least 75% | over 75% | – | –
5 | O=c1nc2n(Cc3ccc(Cl)nc3)c(Br)c(Br)cc-2o1 [Compound E1.26] | – | – | at least 75% | – | – | – | – | – | –
6 | O=c1nc2n(Cc3cnc(Cl)c(Cl)c3)cccc-2o1 [Compound E1.5] | – | – | – | at least 75% | – | at least 75% | over 75% | at least 75% | at least 75%
7 | O=c1nc2n(Cc3cnc(Cl)nc3)cccc-2o1 [Compound E1.12] | at least 75% | – | – | at least 75% | at least 75% | at least 75% | over 75% | – | –
8 | O=c1nc2n(Cc3ccc(F)nc3)cccc-2s1 [Compound E1.14] | at least 75% | at least 75% | at least 75% | at least 75% | – | at least 75% | over 75% | – | –
9 | O=c1nc2n(Cc3ccc(Cl)nc3)cc(F)cc-2o1 [Compound E1.20] | at least 75% | at least 75% | at least 75% | at least 75% | – | – | – | – | –
10 | O=C1CN2CCCN(Cc3ccc(Cl)nc3)C2=N1 [Compound E2.7] | – | – | – | – | – | at least 75% | – | – | –
11 | O=c1nc2n(Cc3ccc(C(F)(F)F)nc3)cccc-2s1 [Compound E1.15] | – | – | – | – | – | at least 75% | – | – | –
12 | Fc1cc(Cn2cccc3oc(=S)nc2-3)cnc1Cl [Compound E1.32] | at least 75% | at least 75% | at least 75% | at least 75% | at least 75% | at least 75% | over 75% | at least 75% | at least 75%
13 | O=c1nc2n(Cc3ccc(C(F)(F)F)nc3)cccc-2o1 [Compound E1.9] | – | – | at least 75% | – | – | at least 75% | – | – | –
14 | S=c1nc2n(Cc3ccc(Cl)nc3)cccc-2s1 [Compound E1.35] | at least 75% | at least 75% | at least 75% | at least 75% | at least 75% | at least 75% | over 75% | at least 75% | at least 75%
15 | O=c1nc2n(Cc3ccc(Cl)nc3)cc(Cl)cc-2o1 [Compound E1.22] | – | – | at least 75% | – | – | at least 75% | – | – | –
16 | Cc1ccn(Cc2ccc(Cl)nc2)c2nc(=O)oc1-2 [Compound E1.44] | – | – | at least 75% | – | – | at least 75% | – | – | –
17 | Cc1cc2oc(=O)nc-2n(Cc2ccc(Br)nc2)c1 [Compound E1.40] | – | – | – | at least 75% | – | at least 75% | – | – | –
18 | S=c1nc2n(Cc3ccc(Cl)nc3)cc(Br)cc-2s1 [Compound E1.37] | – | – | – | – | – | at least 75% | over 75% | – | –

Row | Compound | mortality in comparison with untreated controls [1] | mortality in comparison with untreated controls [2] | mortality in comparison with untreated controls [3] | mortality in comparison with untreated controls [4] | mortality in comparison with untreated controls [5] | mortality in comparison with untreated controls [6] | mortality in comparison with untreated controls [7] | mortality in comparison with untreated controls [8] | mortality in comparison with untreated controls [9]
19 | O=c1nc2n(Cc3cnc(Cl)cn3)cccc-2o1 [Compound E1.11] | – | at least 75% | at least 75% | – | – | at least 75% | – | – | –
20 | O=c1nc2n(CC3CCOC3)cccc-2o1 (stereo not shown) [Compound E1.7] | at least 75% | at least 75% | at least 75% | – | – | – | – | – | –
21 | Cc1cc2oc(=O)nc-2n(Cc2cnc(Cl)s2)c1 [Compound E1.33] | – | – | – | – | – | at least 75% | over 75% | – | –
22 | Cc1cc2sc(=S)nc-2n(Cc2cnc(Cl)s2)c1 [Compound E1.45] | – | – | at least 75% | – | – | – | over 75% | – | –
23 | Cc1cc2oc(=S)nc-2n(Cc2ccc(Cl)nc2)c1 [Compound E1.28] | – | at least 75% | at least 75% | at least 75% | – | at least 75% | – | at least 75% | –
24 | Cc1cc2sc(=S)nc-2n(Cc2cnc(Cl)c(F)c2)c1 [Compound E1.47] | – | – | – | – | – | at least 75% | – | – | –
25 | Cc1cc(Cn2cccc3oc(=O)nc2-3)on1 [Compound E1.8] | – | at least 75% | at least 75% | at least 75% | at least 75% | at least 75% | – | – | at least 75%
26 | Cc1ccn(Cc2ccc(Cl)nc2)c2nc(=S)oc1-2 [Compound E1.43] | – | at least 75% | – | – | – | at least 75% | over 75% | at least 75% | at least 75%
27 | Cc1cc2oc(=S)nc-2n(Cc2ccc(Br)nc2)c1 [Compound E1.39] | – | – | at least 75% | – | – | – | – | – | –
28 | O=c1nc2n(Cc3ccc(Cl)nc3)c(Cl)c(Cl)cc-2o1 [Compound E1.25] | – | – | at least 75% | – | – | – | over 75% | – | –
29 | S=c1nc2n(Cc3cnc(Cl)s3)cccc-2s1 [Compound E1.46] | – | at least 75% | at least 75% | – | – | at least 75% | over 75% | – | at least 75%
30 | O=c1nc2n(Cc3cnc(Cl)c(F)c3)cccc-2s1 [Compound E1.21] | – | at least 75% | at least 75% | at least 75% | at least 75% | at least 75% | over 75% | – | at least 75%
31 | Cc1cc2oc(=O)nc-2n(Cc2ccc(Cl)nc2)c1 [Compound E1.27] | – | – | at least 75% | – | – | at least 75% | over 75% | – | –
32 | O=c1nc2n(o1)CCN2Cc1ccc(Cl)nc1 [Compound E2.8] | – | at least 75% | at least 75% | – | – | at least 75% | – | – | –
33 | O=c1nc2n(Cc3cnc(Cl)c(F)c3)cccc-2o1 [Compound E1.4] | at least 75% | at least 75% | at least 75% | at least 75% | at least 75% | at least 75% | over 75% | at least 75% | at least 75%
34 | O=c1nc2n(Cc3ccc(Cl)nc3)cccc-2[nH]1 [Compound E1.19] | – | – | – | – | – | at least 75% | – | at least 75% | –
35 | Fc1cc2oc(=S)nc-2n(Cc2ccc(Br)nc2)c1 [Compound E1.41] | at least 75% | – | at least 75% | at least 75% | – | at least 75% | – | – | –
